Test: Bi-directional Caco-2 cell permeability
Type: in vitro ADME
Conditions: human, n = 3
Procedure: Caco-2 cell permeability was assessed to predict the oral absorption of SPN. Cell culture and transport studies were performed as previously described. Briefly, for the bi-directional transport studies, the cells were seeded at a density of 1 × 10^5 cells/well, and the cell medium was replaced until they formed confluent monolayers. On the 25th day, the cell monolayers were washed with pre-warmed HBSS buffer. […] Before the experiment, the integrity of the cell monolayers was evaluated by measuring the transepithelial electrical resistance using a Millicell ohmmeter. After 2 h incubation at 37 °C, samples were withdrawn from both sides, respectively. All samples were stored at −80 °C until LC-MS/MS analysis, and all experiments were performed in triplicate.
The apparent permeability coefficient (Papp) was calculated using the following equation. Papp = (Vr/C0) × (1/A) × ([Drug]/t) where, Vr is the volume of medium in the receiver chamber, C0 is the donor compartment concentration at time zero, A is the area of the cell monolayer, t is the treatment time of the drug, and [Drug] is the drug concentration in the receiver chamber.

Papp A→B at 2 h, 10 µM: 26.8 ± 3.31 ×10⁻⁶ cm/s
Compound: CC(C)NCC(O)COc1cccc2ccccc12 (stereo not shown) [propranolol, reference compound]

Source: paper PMC7238241, “Lack of Correlation between In Vitro and In Vivo Studies on the Inhibitory Effects of (‒)-Sophoranone on CYP2C9 Is Attributable to Low Oral Absorption and Extensive Plasma Protein Binding of (‒)-Sophoranone” (Pharmaceutics, 2020)
